Results deposited as PubChem BioAssay AID1224830 (NIAID, 2016)
Shown is one part, drawn at random, of about 18,000 reagents tested. About 2,900 of them (16%) count as active. 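Calls are made per well; low scores hint the gene aids the LPS response, high scores that it dampens it.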 A number with no mark means an inactive call. Repeated entries: four replicate wells of each siRNA pool. No sequences are given here.

Purpose: 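Regulators of TLR4 signalling towards TNF-alpha in macrophage-like cells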 (primary screen)
Cells: human THP-1 monocytic leukaemia cells, TNF dual-luciferase reporter clone, PMA-differentiated to macrophage-like cells
Reagents: siRNA pool against human genes, 50 nM
Timing: LPS for 4 h, given about 3 days after siRNA transfection
Treatment: bacterial LPS (TLR4 ligand), 10 ng/ml
Read-out: 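TNF firefly reporter luminescence divided by renilla, normalised to the plate median, then turned into a robust z-score for each replicate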
Direction: TNF reporter robust z-score: higher = stronger TNF reporter response to LPS
Call rule: 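Each well counts as active if its z-score is over 2.8 or under -1.5; controls are left without a call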

MKKS
- TNF reporter robust z-score: -0.28

MKKS
- TNF reporter robust z-score: -0.68

MKKS
- TNF reporter robust z-score: -0.9

MKKS
- TNF reporter robust z-score: -0.11

OSBP2
- TNF reporter robust z-score: -0.98

OSBP2
- TNF reporter robust z-score: -1.09

OSBP2
- TNF reporter robust z-score: -0.71

OSBP2
- TNF reporter robust z-score: -1.12

DHCR7
- TNF reporter robust z-score: 0.74

DHCR7
- TNF reporter robust z-score: 0.64

DHCR7
- TNF reporter robust z-score: 1.17

DHCR7
- TNF reporter robust z-score: 1.09

CSGALNACT1
- TNF reporter robust z-score: -1.4

CSGALNACT1
- TNF reporter robust z-score: -1.2

CSGALNACT1
- TNF reporter robust z-score: -1.41

CSGALNACT1
- TNF reporter robust z-score: -1.26

5 entries already listed, ordered by “TNF reporter robust z-score”, lowest first.
OSBP2
- TNF reporter robust z-score: -1.09

OSBP2
- TNF reporter robust z-score: -0.98

MKKS
- TNF reporter robust z-score: -0.9

MKKS
- TNF reporter robust z-score: -0.68

MKKS
- TNF reporter robust z-score: -0.11

Further reagents follow.
ANXA3
- TNF reporter robust z-score: 0.89

ANXA3
- TNF reporter robust z-score: 1.12

ANXA3
- TNF reporter robust z-score: 0.82

ANXA3
- TNF reporter robust z-score: 0.48

NDUFA5
- TNF reporter robust z-score: -1.84 (active)

NDUFA5
- TNF reporter robust z-score: -1.26

NDUFA5
- TNF reporter robust z-score: -0.98

NDUFA5
- TNF reporter robust z-score: -0.97

LSM14B
- TNF reporter robust z-score: -0.98

LSM14B
- TNF reporter robust z-score: -0.94

LSM14B
- TNF reporter robust z-score: -0.52

LSM14B
- TNF reporter robust z-score: -0.3

ATP5PD
- TNF reporter robust z-score: 0.05

ATP5PD
- TNF reporter robust z-score: 0.91

ATP5PD
- TNF reporter robust z-score: -0.62

ATP5PD
- TNF reporter robust z-score: 0.22

SNX1
- TNF reporter robust z-score: -0.25

SNX1
- TNF reporter robust z-score: -0.94

SNX1
- TNF reporter robust z-score: -0.14

SNX1
- TNF reporter robust z-score: 0.57

DVL2
- TNF reporter robust z-score: -0.04

DVL2
- TNF reporter robust z-score: 0.69

DVL2
- TNF reporter robust z-score: 0.25

DVL2
- TNF reporter robust z-score: 0.4

RHEX
- TNF reporter robust z-score: 0

RHEX
- TNF reporter robust z-score: 0.25

RHEX
- TNF reporter robust z-score: -0.61

RHEX
- TNF reporter robust z-score: -0.67

CRISP1
- TNF reporter robust z-score: 1.11

CRISP1
- TNF reporter robust z-score: -0.01

CRISP1
- TNF reporter robust z-score: 1.25

CRISP1
- TNF reporter robust z-score: 0.33
